# Source: the supplement of paper PMC3334620
# Over roughly 33,000 sequences, “E-score (-0.5 to 0.5)” has its median near -0.015; the highest 2% begin near 0.3. Some of the results follow.
# Target: T1, Abf1 (UniProt P14164)
# T1 sequence: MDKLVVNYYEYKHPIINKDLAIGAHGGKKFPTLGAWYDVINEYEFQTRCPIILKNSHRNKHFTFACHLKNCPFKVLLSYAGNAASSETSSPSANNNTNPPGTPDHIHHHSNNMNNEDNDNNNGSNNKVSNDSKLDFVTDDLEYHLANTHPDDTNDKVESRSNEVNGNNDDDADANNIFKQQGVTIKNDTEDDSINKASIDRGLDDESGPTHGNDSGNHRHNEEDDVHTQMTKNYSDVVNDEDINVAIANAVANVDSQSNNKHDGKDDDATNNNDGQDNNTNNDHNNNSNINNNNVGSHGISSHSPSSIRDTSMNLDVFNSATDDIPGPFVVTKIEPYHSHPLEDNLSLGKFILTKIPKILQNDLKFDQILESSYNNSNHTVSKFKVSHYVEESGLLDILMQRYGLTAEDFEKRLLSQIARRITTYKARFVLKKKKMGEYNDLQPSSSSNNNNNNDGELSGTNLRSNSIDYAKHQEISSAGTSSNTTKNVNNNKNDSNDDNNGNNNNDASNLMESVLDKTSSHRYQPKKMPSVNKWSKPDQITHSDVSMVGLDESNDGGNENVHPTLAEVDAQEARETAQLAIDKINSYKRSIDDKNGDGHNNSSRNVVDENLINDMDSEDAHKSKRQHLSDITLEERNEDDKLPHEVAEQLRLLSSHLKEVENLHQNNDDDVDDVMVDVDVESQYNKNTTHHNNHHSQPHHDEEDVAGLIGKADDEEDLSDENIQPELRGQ
# Assay: PBM E-score (8-mer binding enrichment) (E-score (-0.5 to 0.5)); higher = stronger / more preferred TF binding
# Settings: protein concentration: 200 nM; construct: GST-full length
# Procedure, shortened: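 The E-score, a modified Wilcoxon-Mann-Whitney statistic, was computed by the Universal PBM Analysis Suite for every ungapped eight-base word pooled with its reverse complement. Scans behind it were normalised with masliner after bound GST-tagged yeast transcription factors were detected with fluorescent anti-GST. The proteins, at about 100-200 nM, had been applied to universal all-10-mer Agilent arrays made double-stranded by primer extension.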
row,Sequence,PBM E-score
1,AGACGCTG,-0.202
2,GGGTGTTA,-0.00815
3,CATCGCAG,-0.0266
4,GCCGTCCA,0.254
5,GCCCGAAA,0.108
6,ATAGATTA,0.19
7,CCGCTTTA,-0.0793
8,AACGACAA,0.308
9,AAATGATG,0.318
10,CCCTAGCG,-0.296
11,GACGGAGC,-0.0339
12,ACAATCAA,0.218
13,CCGTTATC,0.233
14,AGCGAAGG,-0.134
15,CTCCCTAA,-0.0986
16,AATGCTCA,-0.0815
17,AGATTATC,0.173
18,CACATTCG,0.0636
19,ATTACCGA,0.0732
20,AGTCCACG,-0.057
21,ATCGGTGA,0.261
22,CACCGGTA,0.051
23,TATTCGAA,0.0266
24,CAGCTGTA,-0.258
25,ACGGCTCG,0.159

row,Sequence,PBM E-score
1,GTCAACAC,-0.00591
2,CAGAAAAC,0.0948
3,CTAGTCCC,0.00624
4,AATGTACT,0.106
5,CAACAGAC,-0.0516
6,TGACGGCA,0.0724
7,ATCACTAG,0.357
8,GGTACACC,-0.0434
9,AATAGAAT,0.117
10,CACTGGTA,0.0564
11,CCATCGTC,-0.00436
12,GAGTCCAA,-0.134
13,GTACGCAC,-0.132
14,ACCGGTCA,-0.103
15,ATCGCCCG,0.028
16,CCAGAACG,0.123
17,AGCAGGCT,-0.228
18,AATTGCCC,-0.0322
19,CTGACTTA,0.0943
20,ACTTCTCT,0.0409
21,CTTGAGTC,-0.231
22,ATAGAGCG,-0.101
23,ATGGTGCA,-0.018
24,ACTGTCAA,0.0961
25,CTTACATC,-0.15

row,Sequence,PBM E-score
1,TACCGTGA,0.169
2,GAGACGGA,-0.066
3,TCATCGAA,0.0681
4,AGTATGAT,0.199
5,CCGATCGC,0.00883
6,AGAGAATC,-0.0971
7,CGAACACA,0.0887
8,GGGAGATA,-0.0848
9,GGATTGCA,-0.177
10,AAAGGTGA,0.103
11,GGCGAGCA,-0.143
12,CCGGTGAG,-0.106
13,GTCTAAAA,0.102
14,ACGTTTTG,0.101
15,CGCGGTTA,-0.131
16,GCTAATAA,0.0283
17,GATGATAC,0.297
18,TACATACA,0.157
19,ATAAACGG,0.273
20,AGAAAAGG,-0.0809
21,AATCGTGA,0.175
22,CCTATCCG,-0.134
23,CGGCGACG,0.21
24,CGCGTTAA,0.0631
25,ACCGTAGG,0.0666

row,Sequence,PBM E-score
1,CACCCCTG,-0.286
2,GCCCGCGC,-0.0863
3,AATCGTCA,0.334
4,CAGGCAGG,-0.0674
5,AGTGTCGG,-0.174
6,CCTGTACG,0.206
7,CAATCGGA,-0.00152
8,CACGTCGG,0.153
9,CACGCCAA,-0.133
10,GACGTATA,0.249
11,ACGTCAGT,0.104
12,GATGAGGC,-0.194
13,AGTGGTTC,-0.213
14,TTACCAAA,0.0197
15,ATAAAAGC,0.0449
16,GCCTCTAC,-0.251
17,GAAGCGCA,-0.203
18,ACCGATAA,0.0741
19,AGCCCTTA,-0.224
20,GTCGTAAC,0.229
21,GGTAATAC,0.099
22,ATAAGTTA,0.0278
23,AGGGTCAA,-0.0486
24,CCAGCAGC,-0.186
25,AGCTCTAC,-0.161

row,Sequence,PBM E-score
1,CTGTAGTC,-0.0381
2,ACTAGCAG,-0.0118
3,ATGCTGCC,-0.123
4,CCGAGAAA,0.0386
5,GAATTCCC,-0.0895
6,CCTTGCCA,0.0541
7,ATACTAAG,0.14
8,CAACCATA,0.0134
9,CTCAGTCC,-0.0697
10,CGCGTGCA,-0.191
11,CGAATCAA,0.101
12,CAGCTATA,-0.191
13,CCGTGTAG,0.198
14,GCGTAAGC,-0.15
15,ATGCATAG,-0.0232
16,CGCTAAGA,-0.0828
17,CCCCAGAG,-0.297
18,ACCCACTC,-0.18
19,AATTGACT,-0.00646
20,AAAGGTGT,0.0232
21,CAGGACTC,-0.117
22,CCTTATTA,0.0454
23,AAGGCATT,-0.0671
24,GACGACGC,0.3
25,CGTGTCAC,0.327

row,Sequence,PBM E-score
1,CACGTACC,0.0446
2,ATCGGCCA,-0.159
3,ACCAGCCA,-0.0621
4,ATACGTCA,0.204
5,ACCTCCCA,-0.307
6,ATGTTCTA,0.0983
7,AAACTTGC,-0.0788
8,AGCGGTCG,-0.0708
9,ACCCACAA,0.0306
10,GACTGACC,-0.231
11,CAACTCGG,-0.115
12,TCCATTCA,0.0175
13,AGAGCAGC,-0.152
14,CCGTCGGA,0.199
15,GGCTGCTA,-0.201
16,AGTGCCAT,-0.185
17,GACCAATA,0.00655
18,GCACTAGC,-0.124
19,CCGCCCTC,-0.334
20,CTAGCTGC,-0.114
21,CAAGTTTC,-0.0682
22,ACCATGCT,-0.0859
23,AATTTTAT,0.189
24,ACCAATGA,0.104
25,CACCATTC,-0.0603

# Taken from the entries so far for reference:
row,Sequence,PBM E-score
23,ATGGTGCA,-0.018
24,ACTGTCAA,0.0961
25,CTTACATC,-0.15
1,TACCGTGA,0.169
2,GAGACGGA,-0.066
3,TCATCGAA,0.0681
4,AGTATGAT,0.199
5,CCGATCGC,0.00883
6,AGAGAATC,-0.0971
7,CGAACACA,0.0887
8,GGGAGATA,-0.0848
9,GGATTGCA,-0.177
10,AAAGGTGA,0.103
11,GGCGAGCA,-0.143
12,CCGGTGAG,-0.106
13,GTCTAAAA,0.102
14,ACGTTTTG,0.101
15,CGCGGTTA,-0.131
16,GCTAATAA,0.0283
17,GATGATAC,0.297
18,TACATACA,0.157
19,ATAAACGG,0.273
20,AGAAAAGG,-0.0809
21,AATCGTGA,0.175
22,CCTATCCG,-0.134
23,CGGCGACG,0.21
24,CGCGTTAA,0.0631
25,ACCGTAGG,0.0666
1,CACCCCTG,-0.286
2,GCCCGCGC,-0.0863
3,AATCGTCA,0.334
4,CAGGCAGG,-0.0674
5,AGTGTCGG,-0.174
6,CCTGTACG,0.206
7,CAATCGGA,-0.00152
8,CACGTCGG,0.153
9,CACGCCAA,-0.133
10,GACGTATA,0.249
11,ACGTCAGT,0.104
12,GATGAGGC,-0.194
13,AGTGGTTC,-0.213

# Following part.

row,Sequence,PBM E-score
1,AGGAGTAC,-0.208
2,AATAAGAG,0.0298
3,CCCAAGGG,-0.248
4,GTGACGAA,0.315
5,ACCGGGAC,-0.144
6,ATAGTTGG,-0.149
7,AGTCCGAA,0.00015
8,GCTGTGAA,0.0318
9,CCTTGCAA,-0.234
10,TGCGTAAA,0.0704
11,TATGCTCA,0.174
12,ATGTCCAA,0.0558
13,AGTAGTCG,0.00062
14,CCCAACCA,-0.0515
15,ACAGGTTA,-0.182
16,ATTCAAAC,0.0296
17,ACGGGAGA,-0.13
18,AATTCATC,0.0238
19,GTTCACCA,0.0848
20,GAAAACCC,0.0491
21,GCGAAGAC,-0.316
22,CGTTCTTC,0.0689
